# Results deposited as PubChem BioAssay AID1259308 (NCATS, 2017)
# Assay: 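Candidate targets for better recombinant protein yield in mammalian cells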 (primary screen)
# Cell system: human HEK293 embryonic kidney cells stably expressing firefly luciferase (HEK-CMV-Luc2-Hygro)
# Knock-down reagent: single siRNA against human genes, 0.8 pmol siRNA per well
# Time to read-out: 72 h
# Measurement: 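Reporter luminescence and viable-cell signal on separate replicate plates, given as percent of non-targeting control and median/MAD z-scores, plus per-cell luciferase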
# Direction: total luciferase, z-score and total luciferase, % of control: higher = more reporter protein produced
# Call rule: 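An siRNA counts as active if its total luciferase robust z-score exceeds 3; genes with two or more such siRNAs out of three were retested with fresh siRNAs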
# Meaning of the calls: active = raised luciferase; inactive = no rise
# This is a random part of about 59,000 reagents. Over the whole deposit, about 1,510 (2.6%) were called active. 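Calls use total luciferase alone and ignore viability, so some active siRNAs may act by altering cell number.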 Entries without a mark were called inactive. The numbers tell different reagents against one gene apart. Further read-outs or replicates are left out here. Reagent sequences are not shown.
gene symbol,reagent,"total luciferase, z-score","total luciferase, % of control"
LOC729770 (retired record),1,2.89,139
LOC729770 (retired record),2,0.55,92.8
LOC729770 (retired record),3,-0.306,75.8
RGS1,1,-0.269,76.5
RGS1,2,-0.684,68.3
RGS1,3,-0.842,65.1
FAR2,1,0.443,90.7
FAR2,2,0.364,89.1
FAR2,3,-0.421,73.5
KISS1,1,-1.35,55.1
KISS1,2,0.0849,83.6
KISS1,3,-2.39,34.4
OR2AT4,1,-1.77,46.7
OR2AT4,2,-0.558,70.8
OR2AT4,3,0.749,96.8
IVNS1ABP,1,-1.66,48.8
IVNS1ABP,2,-0.951,63
IVNS1ABP,3,0.249,86.8
MMS22L,1,1.4,110
MMS22L,2,-0.406,73.8
MMS22L,3,0.17,85.3
INHA,1,-0.5,71.9
INHA,2,1.04,103
INHA,3,-0.697,68
ITGB6,1,-0.621,69.5
ITGB6,2,-0.295,76
ITGB6,3,-2.02,41.6
DKK1,1,1.55,113
DKK1,2,0.166,85.2
DKK1,3,-1.84,45.2
CCDC124,1,1.44,111
CCDC124,2,-0.467,72.6
CCDC124,3,2.29,127
SPMIP8,1,-0.782,66.3
SPMIP8,2,-0.287,76.2
SPMIP8,3,0.689,95.6
C19orf38,1,-0.855,64.9
C19orf38,2,3.5 (active),152
C19orf38,3,0.349,88.8

A few values from the list:
Under “total luciferase, z-score”, MMS22L #3 has 0.17
Value of SPMIP8 #2 in “total luciferase, % of control”: 76.2
For “total luciferase, z-score”, KISS1 #3 has -2.39
KISS1 #1, total luciferase, z-score: -1.35
